Results are given in words; binding and its absence hold for the method and conditions named. Binding seen in cells or lysates may run through a third protein.
Biological target: Flag-APH-2 (antisense protein of HTLV-2) (HTLV-2)
Assay: co-IP; HEK293T cells transfected with 1 ug of each expression vector, harvested after 24 h; lysed in 10 mM Tris-HCl pH 7.5, 5 mM EDTA, 150 mM NaCl, 1% Triton X-100; Flag-tagged protein precipitated with anti-Flag antibody overnight at 4°C on Dynabeads Protein G or A; partner detected by western …

B1: p52 (protein, UniProt Q00653 1-454)
chain: MESCYNPGLDGIIEYDDFKLNSSIVEPKEPAPETADGPYLVIVEQPKQRGFRFRYGCEGPSHGGLPGASSEKGRKTYPTVKICNYEGPAKIEVDLVTHSDPPRAHAHSLVGKQCSELGICAVSVGPKDMTAQFNNLGVLHVTKKNMMGTMIQKLQRQRLRSRPQGLTEAEQRELEQEAKELKKVMDLSIVRLRFSAFLRASDGSFSLPLKPVISQPIHDSKSPGASNLKISRMDKTAGSVRGGDEVYLLCDKVQKDDIEVRFYEDDENGWQAFGDFSPTDVHKQYAIVFRTPPYHKMKIERPVTVFLQLKRKRGGDVSDSKQFTYYPLVEDKEEVQRKRRKALPTFSQPFGGGSHMGGGSGGAAGGYGGAGGGGSLGFFPSSLAYSPYQSGAGPMGCYPGGGGGAQMAATVPSRDSGEEAAEPSAPSRTPQCEPQAPEMLQRAREYNARLFGLA
binding: no binding

— article PMC6581700
